According to patent US20240415805A1 (priority 2023, published 2024):
“Also recorded” adds a separate entry of the source. At least one structure is not confirmed: it was looked up by name or label, or the drawing left a doubt.

How the values were obtained:
six other PKC isozymes = test: PKC activation: Western blot of the cytosolic fraction of activated primary CD4 cells; format: cell-based, human; conditions: GM 1 nM, 12 hours
PKC-β 1 and 2 = test: as above; format: cell-based, human; conditions: GM 1 nM, 12 hours; a decrease indicates PKC activation
Pg 33277 [1] = test: Pg re-entry / intracellular Pg level in HOKs after 24 h culture with GM, antibiotics or both; format: cell-based, Porphyromonas gingivalis; conditions: GM 20 nM
Pg 33277 vesicles = test: Pg vesicle invasion of HOKs by confocal microscopy; format: cell-based, Porphyromonas gingivalis
Pg 33277 [2] = test: Antibiotic protection assay: invasion of Pg cells into human primary oral keratinocytes; format: cell-based, Porphyromonas gingivalis
Protocol: Inhibition of Pg cells invasion by GM. The ability of Pg to invade oral epithelial cells was determined using an antibiotic protection assay as described^28. Human primary oral keratinocytes (HOKs, 5×10^4 cells, ScienCell® Research Laboratories) were seeded in a 24-well plate. After incubating with Pg 33277 for 1 h, HOKs were continually cultured for another 4 h in the presence of antibiotics (gentamicin (300 μg/ml) and metronidazole (200 μg/ml)) to eliminate extracellular bacteria. The HOKs were then lysed, and the internalized bacteria were plated on TSB blood agar plates. The plates were incubated anaerobically at 37° C. for 7 days, and CFUs of Pg were enumerated. […] In the presence of 40 nM GM, more than 95% of Pg were inhibited from entry into HOKs. In addition, the role of GM in Pg re-entry was tested. After exposure to Pg cells for 1 h and then antibiotic treatment for 4 h, HOKs were continuously cultured for 24 h in the presence of GM (20 nM), antibiotics, or GM and antibiotics. Intracellular Pg was determined as described^28. As expected, intracellular Pg cells moved in and out of the HOKs.

Pg 33277 [3] = test: Pg growth in Trypticase soy broth (OD600); format: cell-based, Porphyromonas gingivalis; conditions: GM up to 200 μM; TSB; OD600 after 16 h
HOKs = test: Cytoskeleton of HOKs: tubulin/actin immunostaining, confocal microscopy; format: cell-based, human

C=C(C)[C@@]12C[C@@H](COC(=O)c3ccccc3)[C@@]34OC5(O[C@@H]1[C@@H]3[C@@H]1O[C@]1(CO)[C@@H](O)[C@@]1(O)[C@H]4[C@H]([C@H](C)[C@@H]1OC(=O)c1ccccc1)[C@H](C)CCCCCC[C@H]5O)O2 [GM, gnidimacrin]
cytosolic levels of six other PKC isozymes (six other PKC isozymes): without affecting | cytosolic PKC-β 1 and 2 levels (PKC-β 1 and 2): significantly reduced | Pg re-entry into HOKs (Pg 33277 [1]): re-entry was block | Pg vesicle invasion of HOKs (Pg 33277 vesicles; 20 nM, vesicles 30 min): effectively blocks; also recorded: almost blocked | Pg vesicle invasion of HOKs, dose dependence (Pg 33277 vesicles; GM 5, 10, 20 nM): inhibited Pg vesicle invasion of HOKs in a dose-dependent manner | blocking of Pg invasion into primary HOKs (Pg 33277 [2]; 20 nM): effectively blocks | invasion of Pg cells into HOKs (Pg 33277 [2]; different concentrations of GM (FIG. 2A), P<0.05): significantly reduced invasion of Pg cells into HOKs in a dose-dependent manner | growth rates of Pg (Pg 33277 [3]): not significantly affected | microtubule rearrangement in HOKs (HOKs; GM 20 nM, 30 min, anti-α-tubulin): Microtubule rearrangement in HOKs and formation of a microtubule shell under the cell membrane were found | actin remodeling in HOKs (HOKs; after GM treatment, data not shown): significant actin remodeling was not observed
